Paper doi:10.1101/2024.04.12.589178
No constants are given. Whether binding was seen depends on the method and setting. In cells and extracts the contact can be indirect. Here binding means that the protein was enriched with, or labelled near, the bait; the list need not be complete.

Amino acid sequences for entries named in this document (tags omitted). Residues count along the entry.
UniProt P30405, residues 30-207: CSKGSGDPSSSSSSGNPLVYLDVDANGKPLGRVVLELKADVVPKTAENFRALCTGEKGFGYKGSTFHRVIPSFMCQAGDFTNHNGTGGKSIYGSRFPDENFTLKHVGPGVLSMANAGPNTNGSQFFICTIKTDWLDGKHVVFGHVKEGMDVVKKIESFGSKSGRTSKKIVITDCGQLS

Target: T1, MPV17-BirA* (human) (UniProt P39210)
T1 sequence: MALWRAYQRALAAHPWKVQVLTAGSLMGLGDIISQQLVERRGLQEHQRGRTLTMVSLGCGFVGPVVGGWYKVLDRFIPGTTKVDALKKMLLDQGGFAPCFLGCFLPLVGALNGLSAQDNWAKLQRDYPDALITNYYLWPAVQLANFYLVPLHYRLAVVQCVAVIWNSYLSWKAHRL
Assay: proximity labelling

binding: binds
Substance: CyclophilinD (from UniProt P30405 30-207)
